Source: PubChem BioAssay AID2685 (National Center for Advancing Translational Sciences (NCATS), 2010)
This is one part of the list. Shown are side measurements of this screen, not its main read-out; they come without a call. The list favours compounds with an active or inconclusive main result. The note in brackets gives the kind of curve behind each potency; many fits are weak.

Test: qHTS Assay for Lipid Storage Modulators in Drosophila S3 Cells;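 on cell number change: cells counted by Cell Tracker Red CMTPX staining in the red channel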
Conditions: BODIPY lipid droplet fluorescence, 18-24 h; for cell number change: measured here: cell count max response, cells fed with added oleic acid
In short: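 Drosophila S3 cells loaded with oleic acid (400 uM, as added) and compounds at several concentrations; lipid droplets imaged by 488-nm laser-scanning cytometry, 500–530 nm intensity and object ratio to cell channel. Percent activity normalized to 20 uM Triacsin C.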

[1] = measured here: cell number channel AC50, cells fed with added oleic acid
[2] = measured here: lipid fluorescence (Fed channel) AC50, cells fed with added oleic acid

Compound | cell number change | AC50 [1] | AC50 [2]
COc1cccc(-n2c(SCC(N)=O)nc3ccccc3c2=O)c1 | -4.15% | 0.092 µM [falling, full curve, poor fit] | 
CCCS(=O)(=O)N1CCC(C(=O)NCCN2CCCC2)CC1 | -134% | 16.4 µM [falling, partial curve] | 16.4 µM [falling, partial curve]
CCOc1cc(/C=N\NC(N)=O)cc(Br)c1OC(C)C | 8.11% |  | 0.082 µM [rising, partial curve, poor fit]
Cc1ccc(/C=N/NC(=O)c2csc3c2CCCC3)cc1 |  |  | 29.1 µM [falling, single point]
CC1=NN(C(=O)Cc2ccc([N+](=O)[O-])cc2)C(O)(c2cccnc2)C1 (stereo unspecified) | -24% |  | 0.116 µM [rising, full curve, poor fit]
CC(=O)Nc1ccc(S(=O)(=O)N(C)CC(=O)N/N=C/c2cccc(O)c2)cc1 | 5.51% |  | 16.4 µM [rising, single point]
COCCn1c(N)c(C(=O)NCc2cccs2)c2nc3ccccc3nc21 | -48.1% | 16.4 µM [falling, single point] | 0.13 µM [rising, partial curve, poor fit]
Cc1nc2ccccc2cc1C(=O)N(C)Cc1ccccc1 | 1.35% |  | 0.231 µM [rising, full curve]
COc1ccccc1CNS(=O)(=O)c1ccc(-c2cc(C)no2)cc1 | 8.49% |  | 3.26 µM [rising, single point]
Cc1ccc(-c2c3c(=O)n(C)c(=O)n(C)c3cn2N2CCOCC2)cc1 | 17.8% |  | 
COc1ccc2oc(=N)c(C(=O)Nc3cccc(C)c3C)cc2c1 | 12.3% |  | 29.1 µM [rising, single point]
CCCC1=Nc2cc(C(=O)NCCCOCC)ccc2Sc2ccccc21 | 2.58% |  | 
O=C(N/N=C/c1ccc([N+](=O)[O-])o1)c1cccc(S(=O)(=O)N2CCOCC2)c1 | -50.2% | 13 µM [falling, partial curve, poor fit] | 6.51 µM [falling, full curve]
Nc1c(Cl)cc(C2=NCCn3c2c2ccccc2[n+]3[O-])cc1Cl | -21.7% | 0.184 µM [falling, full curve, poor fit] | 29.1 µM [falling, partial curve, poor fit]
O=C(CCCCC(=O)N1CCN(c2ccccc2)CC1)N1CCN(c2ccccc2)CC1 | -6.42% |  | 
Cc1cc(C(=O)COC(=O)C2=NNC(=O)CC2)c(C)n1-c1cccc(C(F)(F)F)c1 | -50.5% | 7.31 µM [falling, partial curve, poor fit] | 1.84 µM [falling, full curve, poor fit]
Cc1nn(CCC(=O)NNC(=S)NCC(C)C)c(C)c1Br |  | 6.51 µM [rising, single point] | 6.51 µM [rising, single point]
CCOCCN(C(=O)c1ccccc1Cl)c1ccccc1 | -34.9% | 2.59 µM [rising, single point] | 

In the list so far, 5 contain a halogen.
Compound | cell number change | AC50 [1] | AC50 [2]
CCOc1cc(/C=N\NC(N)=O)cc(Br)c1OC(C)C | 8.11% |  | 0.082 µM [rising, partial curve, poor fit]
Nc1c(Cl)cc(C2=NCCn3c2c2ccccc2[n+]3[O-])cc1Cl | -21.7% | 0.184 µM [falling, full curve, poor fit] | 29.1 µM [falling, partial curve, poor fit]
Cc1cc(C(=O)COC(=O)C2=NNC(=O)CC2)c(C)n1-c1cccc(C(F)(F)F)c1 | -50.5% | 7.31 µM [falling, partial curve, poor fit] | 1.84 µM [falling, full curve, poor fit]
Cc1nn(CCC(=O)NNC(=S)NCC(C)C)c(C)c1Br |  | 6.51 µM [rising, single point] | 6.51 µM [rising, single point]
CCOCCN(C(=O)c1ccccc1Cl)c1ccccc1 | -34.9% | 2.59 µM [rising, single point] | 

The list continues.

Compound | cell number change | AC50 [1] | AC50 [2]
c1ccc(N2CCCCC2)c(Nc2nc3ccccc3n3cnnc23)c1 | -8.32% |  | 1.64 µM [rising, partial curve, poor fit]
CC(=O)c1cc2c(cc1NC(=O)CN1CCOCC1)OCO2 | -2.7% |  | 3.26 µM [rising, partial curve, poor fit]
Cc1ccc2c(=O)cc(C(=O)NCc3ccccc3)oc2c1C | 12.3% |  | 2.06 µM [rising, full curve]
COc1ccc(NC(=O)CN(Cc2ccccc2)S(C)(=O)=O)cc1 | -44.8% | 9.2 µM [falling, partial curve, poor fit] | 23.1 µM [rising, single point]
CCCC(C)NC(=O)CSc1nc2ccc(C)cc2[nH]1 (stereo unspecified) | 22.6% | 3.26 µM [rising, single point] | 
O=C(COc1ccc2ccccc2c1Br)N1CCN(c2ccccn2)CC1 | -15.4% |  | 1.84 µM [rising, partial curve]
CC(=O)/C=C(\C)Nc1c(C)n(C)n(-c2ccccc2)c1=O | -61.6% | 32.6 µM [falling, single point] | 29.1 µM [falling, single point]
NS(=O)(=O)c1ccc(CCNC(=O)C2CCCN2S(=O)(=O)c2cccc3nsnc23)cc1 (stereo unspecified) | -3.8% |  | 0.00461 µM [falling, full curve, poor fit]
O=C(O)CC(CC(=O)Nc1ccc(Oc2ccccc2)cc1)c1ccccc1 (stereo unspecified) | 1.72% |  | 3.66 µM [rising, single point]
CCOC(=O)c1c(N)n(CC(C)NC(=O)C2CC2)c2nc3ccccc3nc12 (stereo unspecified) | 4.93% |  | 0.103 µM [falling, full curve, poor fit]
CCOCc1c(C(=O)N2CCN(Cc3ccc(Br)s3)CC2)oc2ccccc12 | -2.19% |  | 0.058 µM [falling, full curve, poor fit]
Cc1ccc(S(=O)(=O)N2CCN(C(=O)COC(=O)c3cnc(C)cn3)CC2)c(C)c1 | -31.4% | 23.1 µM [falling, single point] | 23.1 µM [falling, partial curve]
O=C(COc1ccccc1)N1CCN(C(=O)c2ccccc2F)CC1 | 23.8% | 0.13 µM [rising, full curve, poor fit] | 
CCS(=O)(=O)c1nc(NC(C)=O)n[nH]1 | 4.4% |  | 
Cc1ccc(NC(=O)C(c2ccccc2)N(C)C)cc1Cl (stereo unspecified) |  | 0.461 µM [falling, single point] | 
CN(C)C(CNC(=O)C1CCN(C(=O)/C=C/c2ccccc2)CC1)c1ccccc1 (stereo unspecified) | 11.8% | 0.206 µM [rising, full curve, poor fit] | 
COc1ccc(C(=O)NC(C)c2ccccc2)cc1Br (stereo unspecified) | 39.2% | 20.6 µM [rising, single point] | 6.51 µM [falling, single point]
COc1ccc(Nc2ccc(S(=O)(=O)N3CCCCC3)cc2[N+](=O)[O-])cc1OC | -66.6% | 25.9 µM [falling, single point] | 16.4 µM [falling, partial curve]
